Test results reported in PubChem BioAssay AID540256 (National Center for Advancing Translational Sciences (NCATS), 2011).
Hit rate of the full screen: of about 300,000 compounds, about 3,700 (1.2%) were called active. Inconclusive means that the source gave no clear call. Such entries were picked first, then a sample of the others. Calls come from the whole dose curve; tested in HEK293 cells. A potency beside an inconclusive call is a rough fit, not a confirmed value.

Experiment: qHTS for Inhibitors of binding or entry into cells for Lassa Virus; note: nearly all actives have a fitted effect of over 50% in size
Conditions: Lassa virus pseudotype entry inhibition, cell reporter; activity change, negative = inhibition: at 37.9 µM (top of the series) unless noted
% is set by controls: 0 for no effect and ±100 for the full control effect; potency is the fitted concentration of half-maximal effect.

**Q.** Which “activity change, negative = inhibition” value does the source give for `COc1ccccc1CNC(=O)C1CCCN(c2nnc(C)c3c(C)n(-c4ccccc4)nc23)C1` (stereo not drawn) here?
**A.** inactive: -13.9% [at 46.1 µM]

**Q.** Which Potency does the source give for `O=C1NC(=O)/C(=C\c2ccc(Oc3cnccn3)cc2)S1` here?
**A.** inconclusive: 3.16 µM [activator, full curve, poor fit]

**Q.** Which Potency does the source give for `O=C1N/C(=N/Nc2ccccc2)S/C1=C\c1ccccc1` here?
**A.** inconclusive: 0.501 µM [inhibitor, full curve, poor fit]

**Q.** Which Potency does the source give for `Cc1ccc(S(=O)(=O)N2CCOCC2)cc1C(=O)OCC(=O)NC1CCCCC1` here?
**A.** inconclusive: 35.5 µM [activator, single point]

**Q.** For `Cc1ccc(N2CC(C(=O)N3CCOCC3)CC2=O)cc1C` (stereo not drawn), which “activity change, negative = inhibition” value is on record?
**A.** inactive: -6.76%

**Q.** Which Potency does the source give for `Cc1cc(-n2c(C)cc(C(=O)CCl)c2C)no1` here?
**A.** inconclusive: 12.6 µM [inhibitor, partial curve, poor fit]

**Q.** Which “activity change, negative = inhibition” value does the source give for `COc1ccc2oc(-c3ccc(C)c(NC(=O)c4ccc(-c5ccccc5[N+](=O)[O-])o4)c3)nc2c1` here?
**A.** inactive: -1.71% [at 46.1 µM]

**Q.** For `Cc1cccc(-c2nc3c(cnn3-c3ccccc3)c(=O)n2-c2ccc(Br)cc2)c1`, which “activity change, negative = inhibition” value is on record?
**A.** inactive: 5.33% [at 46.1 µM]

**Q.** With `COc1cc(S(=O)(=O)N2CCOCC2)ccc1NC(=O)COC(=O)COc1ccccc1` as the compound, how does the Potency read?
**A.** inconclusive: 3.16 µM [inhibitor, partial curve, poor fit]

**Q.** Which Potency does the source give for `Cc1ccc(C(=O)c2cc3ccccc3o2)cc1C` here?
**A.** inconclusive: 25.1 µM [inhibitor, single point]

**Q.** With `COc1ccc2c(c1)O[C@@H](c1ccc3c(c1)OCO3)[C@H](O)C2=O` as the compound, how does the Potency read?
**A.** inconclusive: 0.531 µM [activator, partial curve, poor fit]

**Q.** With `COc1ccc(C2C=C(c3ccccc3)Nc3nc(NC(=O)c4cccc([N+](=O)[O-])c4)nn32)cc1` (stereo not drawn) as the compound, how does the “activity change, negative = inhibition” value read?
**A.** inactive: 15.6% [at 46.1 µM]

**Q.** For `COc1ccc(C(=O)Nc2ccc(C(=O)OCC(=O)c3ccccc3)cc2)cc1`, which Potency is on record?
**A.** inconclusive: 1 µM [activator, full curve, poor fit]

**Q.** For `COc1cc(OC)cc(C(=O)NC(=S)NNC(=O)[C@H]2C[C@@H]2c2ccccc2)c1`, which Potency is on record?
**A.** active: 3.16 µM

**Q.** With `CC(=O)Oc1ccc(N(C(C)=O)S(=O)(=O)c2ccc(Cl)cc2)c2ccccc12` as the compound, how does the Potency read?
**A.** inconclusive: 35.5 µM [inhibitor, single point]

**Q.** Which “activity change, negative = inhibition” value does the source give for `COc1ccc(-c2csc(NC(=O)c3cccc(N4C(=O)CCC4=O)c3)n2)cc1C` here?
**A.** inactive: 0.199%

**Q.** Which Potency does the source give for `N/C(=N/[N+](=O)[O-])N1CCN(C(=O)c2ccc(Cl)cc2)CC1` here?
**A.** inconclusive: 8.91 µM [activator, single point]

**Q.** With `CCCOc1ccc(Cn2c(C)nc([N+](=O)[O-])c2SCC(O)COC)cc1[N+](=O)[O-]` (stereo not drawn) as the compound, how does the “activity change, negative = inhibition” value read?
**A.** inactive: 10.3%

**Q.** Which “activity change, negative = inhibition” value does the source give for `COc1cccc(/C=C/c2nc(C#N)c(NCCc3ccccc3)o2)c1` here?
**A.** inactive: 0.472% [at 46.1 µM]

**Q.** With `Cc1ccc(S(=O)(=O)N2CCN(C(=O)CN3C(=O)NC(C)(c4ccc5ccccc5c4)C3=O)CC2)cc1` (stereo not drawn) as the compound, how does the Potency read?
**A.** inconclusive: 35.5 µM [inhibitor, single point]

**Q.** Which Potency does the source give for `CC(C)N1C(=O)CCC1C(=O)NC1CCCC1` (stereo not drawn) here?
**A.** inconclusive: 2.06 µM [activator, full curve, poor fit]

**Q.** For `Cc1cc(NC(=O)CSc2nc(C3CC3)nc3sc(C)c(C)c23)no1`, which Potency is on record?
**A.** inconclusive: 20.6 µM [inhibitor, single point]

**Q.** For `O=C(CC(=O)NN=Cc1ccc2c(c1)CCC2)NN=Cc1ccc2c(c1)CCC2`, which “activity change, negative = inhibition” value is on record?
**A.** inactive: -6.05% [at 46.1 µM]

**Q.** For `COc1ccc(N2CCN(c3nc(NC(C)(C)C)nc(N4CCCCC4)n3)CC2)cc1`, which Potency is on record?
**A.** inconclusive: 12.6 µM [inhibitor, partial curve]

**Q.** For `CCNC(=S)Nc1cccc(S(=O)(=O)NC2=NCCC2)c1`, which “activity change, negative = inhibition” value is on record?
**A.** inactive: 19.5%

**Q.** Which Potency does the source give for `O=C(CSc1nnc2c(n1)[nH]c1ccccc12)Nc1ccc2c(c1)OCO2` here?
**A.** inconclusive: 6.51 µM [inhibitor, full curve, poor fit]

**Q.** With `O=C(CSc1nnc(CNc2ccc(F)cc2)o1)N1c2ccccc2Sc2ccccc21` as the compound, how does the Potency read?
**A.** inconclusive: 16.4 µM [inhibitor, single point]

**Q.** Which “activity change, negative = inhibition” value does the source give for `Cc1sc2ncn(CC(=O)NCC3COc4ccccc4O3)c(=O)c2c1S(=O)(=O)N1CCOCC1` (stereo not drawn) here?
**A.** inactive: -27%

**Q.** For `Cc1cccc(CN2C(=O)N(c3ccc(C(C)C)cc3)S(=O)(=O)c3ccccc32)c1`, which Potency is on record?
**A.** inconclusive: 14.1 µM [activator, single point]

**Q.** For `S=c1[nH]nc(-c2ccncc2)n1Cc1ccccc1`, which “activity change, negative = inhibition” value is on record?
**A.** inactive: -0.0631%

**Q.** With `Cc1cccc(C)c1OCCCCCNCCO` as the compound, how does the “activity change, negative = inhibition” value read?
**A.** inactive: -1.77%

**Q.** Which “activity change, negative = inhibition” value does the source give for `CCN(CC(=O)Nc1ccc(OC)cc1)C(=O)c1ccc2ccccc2c1` here?
**A.** inactive: -19.5%

**Q.** Which Potency does the source give for `Cc1cc(C)nc(SCC(=O)Nc2ncc(C(F)(F)F)cc2Cl)n1` here?
**A.** inconclusive: 20 µM [activator, single point]

**Q.** Which Potency does the source give for `Cc1ccc(NC(=O)c2oc3ccc(S(=O)(=O)N4CCC5(CC4)OCCO5)cc3c2C)cc1C` here?
**A.** inconclusive: 7.94 µM [inhibitor, partial curve, poor fit]

**Q.** For `CCC(=O)N1CCN(c2nc(CC)nc3sc4c(c23)CCCC4)CC1`, which Potency is on record?
**A.** inconclusive: 31.6 µM [inhibitor, single point]

**Q.** For `CCOC(=O)C1(CC2CC2)CCN(S(=O)(=O)C[C@]23CC[C@H](CC2=O)C3(C)C)CC1`, which “activity change, negative = inhibition” value is on record?
**A.** inactive: 7.03% [at 46.1 µM]

**Q.** For `O=C(NC1(O)C(=O)c2ccccc2C1=O)c1c(Cl)cccc1Cl`, which Potency is on record?
**A.** inconclusive: 35.5 µM [inhibitor, partial curve, poor fit]

**Q.** Which Potency does the source give for `Cc1cc(C)cc(Nc2ncnc3nc[nH]c23)c1` here?
**A.** inconclusive: 35.5 µM [activator, single point]

**Q.** With `Cc1cc(C)c(NC(=O)COC(=O)c2cccc3c2C(=O)c2ccccc2C3=O)c(C)c1` as the compound, how does the Potency read?
**A.** inconclusive: 3.16 µM [inhibitor, partial curve, poor fit]

**Q.** Which Potency does the source give for `CSc1cccc(NS(=O)(=O)c2cccs2)c1` here?
**A.** inconclusive: 29.1 µM [activator, single point]

**Q.** For `COC(=O)C(Cc1c[nH]c2ccccc12)NC(=O)COc1cccc(C)c1` (stereo not drawn), which Potency is on record?
**A.** inconclusive: 1.12 µM [inhibitor, full curve, poor fit]

**Q.** For `COC(=O)c1sccc1S(=O)(=O)N1CCN(c2cc(Cl)ccc2C)CC1`, which “activity change, negative = inhibition” value is on record?
**A.** inactive: -10.7% [at 46.1 µM]

**Q.** With `Cc1cc(C(=O)CSc2nnc(N)s2)c(C)n1Cc1cccs1` as the compound, how does the Potency read?
**A.** active: 0.355 µM

**Q.** Which Potency does the source give for `CCN(c1cccc(C)c1)S(=O)(=O)c1ccc2c(c1)CCN2C(C)=O` here?
**A.** inconclusive: 35.5 µM [inhibitor, partial curve, poor fit]

**Q.** For `COc1ccccc1C1CCN(Cc2ccc(Cl)c(Cl)c2)CC1`, which Potency is on record?
**A.** inconclusive: 25.1 µM [inhibitor, single point]

**Q.** For `CCn1c(CC(=O)Nc2ccccc2F)nnc1SCC(=O)Nc1nncs1`, which Potency is on record?
**A.** inconclusive: 0.562 µM [inhibitor, full curve, poor fit]

**Q.** Which Potency does the source give for `CCOc1ccc(N2C(=O)C3Sc4[nH]c(=O)sc4C(c4ccc(OC)c(OC)c4)C3C2=O)cc1` (stereo not drawn) here?
**A.** inconclusive: 35.5 µM [activator, single point]

**Q.** Which Potency does the source give for `Cc1ccc(C)c(N2CCN(C(=O)c3cc4ccccn4n3)CC2)c1` here?
**A.** inconclusive: 16.4 µM [inhibitor, single point]

**Q.** With `CCOC(=O)C1(N(CC)CC)Sc2cc(C)ccc2NC1=O` (stereo not drawn) as the compound, how does the Potency read?
**A.** inconclusive: 12.6 µM [inhibitor, partial curve, poor fit]

**Q.** Which Potency does the source give for `COc1cc(/C=N/NC(=O)C(C)Nc2n[nH]c(=O)[nH]c2=O)cc(OC)c1O` (stereo not drawn) here?
**A.** inconclusive: 3.16 µM [activator, partial curve]

**Q.** For `COc1cc(OC)c(-c2nc3cnccc3n2C)cc1OC`, which Potency is on record?
**A.** inconclusive: 0.82 µM [inhibitor, full curve, poor fit]

**Q.** For `c1ccc2sc(SCc3ccc(-c4nnco4)cc3)nc2c1`, which Potency is on record?
**A.** active: 11.2 µM

**Q.** With `Cc1ccccc1-c1nc2scc(CCNS(=O)(=O)c3ccccc3)n2n1` as the compound, how does the Potency read?
**A.** inconclusive: 22.4 µM [activator, single point]

**Q.** Which Potency does the source give for `Cc1cc(/C=C(\C#N)c2nc3ccccc3[nH]2)c(C)n1C` here?
**A.** active: 10 µM

**Q.** With `CC(=O)/C(=C/Nc1ccc(Oc2ccccc2)cc1)c1ccccc1` as the compound, how does the Potency read?
**A.** inconclusive: 12.6 µM [inhibitor, single point]

**Q.** With `CCOC(=O)c1ccc2nc(C)c(CCC(C)=O)c(Cl)c2c1` as the compound, how does the Potency read?
**A.** inconclusive: 20 µM [inhibitor, single point]

**Q.** With `Cc1cn2c(=O)cc(COC(=O)c3cccc(NC(=O)c4ccc(C(C)(C)C)cc4)c3)nc2s1` as the compound, how does the Potency read?
**A.** inconclusive: 5.62 µM [inhibitor, single point]

**Q.** For `Cc1c(C(=O)NCc2ccccc2Cl)sc2nc3n(c(=O)c12)CCCCC3`, which Potency is on record?
**A.** inconclusive: 6.31 µM [inhibitor, single point]

**Q.** For `Brc1cc2c(cc1-c1nc3ccccc3s1)OCO2`, which “activity change, negative = inhibition” value is on record?
**A.** inactive: 3.23% [at 46.1 µM]

**Q.** For `O=C(NCCO)C1COc2ccccc2O1` (stereo not drawn), which Potency is on record?
**A.** inconclusive: 14.1 µM [inhibitor, single point]

**Q.** With `Cc1[nH]nc2c1C(c1ccoc1)C(C#N)=C(N)O2` (stereo not drawn) as the compound, how does the Potency read?
**A.** inconclusive: 1.26 µM [inhibitor, single point]

**Q.** With `Cc1cccc(-c2cc3nc(-c4ccccc4)cc(=O)n3[nH]2)c1` as the compound, how does the Potency read?
**A.** inconclusive: 35.5 µM [inhibitor, single point]

**Q.** Which Potency does the source give for `O=C(CCCCCCC(=O)NCc1ccccc1)NCc1ccccc1` here?
**A.** inconclusive: 2.82 µM [inhibitor, single point]

**Q.** For `CCCCOC(=O)Nc1ccc2c(C)cc(=O)oc2c1`, which “activity change, negative = inhibition” value is on record?
**A.** inactive: 20.5%

**Q.** Which Potency does the source give for `COc1ccc2c(c1)CCc1c(C(=O)N3CCOCC3)noc1-2` here?
**A.** inconclusive: 14.6 µM [inhibitor, single point]

**Q.** Which Potency does the source give for `CN(Cc1ccc(F)cc1)C(=O)c1cc(COc2ccc(-n3cncn3)cc2)on1` here?
**A.** inconclusive: 11.2 µM [inhibitor, partial curve, poor fit]

**Q.** With `O=C(Nc1ccccc1)Nc1cccc(Cl)c1Cl` as the compound, how does the Potency read?
**A.** inconclusive: 35.5 µM [inhibitor, single point]

**Q.** With `CCCCC(=O)NCc1nc2cccnc2n1Cc1ccc(OC)cc1` as the compound, how does the “activity change, negative = inhibition” value read?
**A.** inactive: -2.04% [at 46.1 µM]
